# Data from PubChem BioAssay AID1688 (National Center for Advancing Translational Sciences (NCATS), 2009).
# The campaign covered roughly 220,000 compounds. About 2,400 (1.1%) were called active. The shares of active, inactive and inconclusive entries below differ from those in the screen. The call rests on the fitted dose curve; in most records, active means well fitted inhibition curve with a large enough effect; inconclusive means small, poorly fitted or top-dose-only effect, or effect the other way; inactive means no such curve, though single readings can be large or run the other way. A potency beside an inconclusive call is a rough fit, not a confirmed value.
# Test: qHTS Multiplex Assay to Identify Dual Action Probes in a Cell Model of Huntington: Aggregate Formation (GFP); further: nearly all actives have a fitted effect of over 60% in size
# Conditions: PC12 HttQ103-GFP aggregates, Acumen cytometry, 40 h; activity change, negative = inhibition: at 46.1 µM (top of the series) unless noted
# Procedure, shortened: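 Aggregate formation scored by laser-scanning cytometer (488 excitation, 500–530 emission) in lysed PC12 cells expressing Q103-GFP after 100 nM tebufenozide induction; library tested in dose series, with ATPLite reagent added in the multiplex.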
# On the % scale 0 is the no-effect control and ±100 the full control effect; potency means the concentration at half of the fitted maximal effect.
Compound,Potency,"activity change, negative = inhibition"
S=C(Nc1ccc2nc(-c3ccccn3)c(-c3ccccn3)nc2c1)N1CCCCC1,"inconclusive: 3.16 µM [inhibitor, single point]",
CCOc1ccc(NC(c2ccccn2)c2oc(CO)cc(=O)c2O)cc1 (stereo not drawn),inactive,
Cc1ccc(NC(=S)NNC(=S)NCc2ccccc2)cc1,inactive,
C=CCNc1nc(-c2sc(NC(C)=O)nc2C)cs1,active: 12.6 µM,
CCCCCCCCCc1nc(N)n[nH]1,inactive,
COC1=C(OC)C(=O)C(CCCCCCCCCCO)=C(C)C1=O,"inconclusive: 35.5 µM [inhibitor, single point]",
CCc1cc2cc3c(cc2nc1SCC(=O)Nc1cc(OC)c(OC)cc1C(=O)O)OCO3,"inconclusive: 12.6 µM [activator, partial curve]",
CC(C)(C)c1ccc(/C=N/NC(=S)NC2CCCCC2)cc1,"inconclusive: 28.2 µM [inhibitor, partial curve]",
COc1cc(C#CC#CCN2CCCCC2)ccc1O,inactive,
CCCC(=O)c1ccc(N2CCOCC2)c(F)c1,inactive,
CCC(=O)NC(NC(=S)Nc1c(C)n(C)n(-c2ccccc2)c1=O)C(Cl)(Cl)Cl (stereo not drawn),"inconclusive: 5.62 µM [activator, single point]",
CCOC(=O)Cc1csc(N)n1,inactive,
O=C(c1ccco1)N1CCN(C(c2ccccc2F)c2nnnn2CC2CCCO2)CC1 (stereo not drawn),inactive,
CC1Cc2ccccc2N1C(=O)C1CCN(S(=O)(=O)Cc2ccccc2)CC1 (stereo not drawn),"inconclusive: 0.891 µM [activator, single point]",
COc1ccc(C(=O)c2cnc3cc4c(cc3c2C)OCO4)cc1,"inconclusive: 35.5 µM [inhibitor, single point]",
CC(=O)n1cc(C(C[N+](=O)[O-])SCCN)c2ccccc21 (stereo not drawn),"inconclusive: 35.5 µM [inhibitor, single point]",
COC(=O)c1ccc(NC(=S)Nc2ccccn2)cc1,inactive,
CCn1c(SCC(=O)N/N=C/C=C/c2ccco2)nnc1-c1ccc(OC)cc1,inactive,
CC(C)(C)c1ccc(-c2noc(CCC(=O)NCC3CCCO3)n2)cc1 (stereo not drawn),"inconclusive: 10 µM [inhibitor, partial curve]",
COc1ccc(-c2noc(CSc3nnc(CCc4ccccc4)n3-c3ccccc3)n2)cc1OC,"inconclusive: 35.5 µM [inhibitor, single point]",
O=[n+]1c2c(n([O-])c3cc(F)ccc31)CCCC2,inactive,
Cc1cc(C)c2[nH]c(=O)c(CN(Cc3ccc4c(c3)OCO4)Cc3nnnn3C3CCCC3)cc2c1,"inconclusive: 20 µM [inhibitor, partial curve, poor fit]",
COC(=O)CCC(=O)Oc1ccc(OC(=O)CCC(=O)OC)cc1,"inconclusive: 35.5 µM [inhibitor, single point]",

Compound,Potency,"activity change, negative = inhibition"
CSc1cccc(NC(=S)NCCCN2CCN(c3ccc(F)cc3)CC2)c1,"inconclusive: 35.5 µM [inhibitor, single point]",
CCCN1CC=C2C(C#N)=C(N)C(C#N)(C#N)C(c3cccc(OC)c3OC)C2C1 (stereo not drawn),"inconclusive: 31.6 µM [activator, single point]",
Cc1cccc(-c2nc3c(c(SCC(=O)N(C)C)n2)CCCC3)c1,"inconclusive: 39.8 µM [inhibitor, single point]",
Cc1cc(NC(=O)CCl)n(-c2nc3ccccc3s2)n1,"inconclusive: 6.31 µM [activator, partial curve, poor fit]",
O=C(c1ccncc1)c1ccc(N2CCN(C3CC(=O)N(Cc4ccccc4)C3=O)CC2)cc1 (stereo not drawn),"inconclusive: 22.4 µM [inhibitor, partial curve, poor fit]",
COc1cccc(NC(=S)N(CCCN2CCCC2)Cc2cccn2Cc2ccc(Cl)cc2)c1,"inconclusive: 35.5 µM [inhibitor, single point]",
O=C(CSc1nnnn1-c1ccccc1)NC(=O)Nc1ccc2c(c1)OCCO2,inactive,
Cc1ccc(C)c2nc(SCC(=O)N3CCCc4ccccc43)c(C#N)cc12,"inconclusive: 3.55 µM [inhibitor, partial curve]",
Cc1c(N=C2NC(=O)/C(=C/c3ccc(O)cc3)S2)c(=O)n(-c2ccccc2)n1C,"inconclusive: 14.1 µM [activator, single point]",
COc1ccccc1N1CCN(C(=O)CSc2nc(C)c(C)c(=O)[nH]2)CC1,"inconclusive: 35.5 µM [activator, partial curve]",
COc1cccc(C2CC(c3c(F)cccc3Cl)n3nc(N)nc3N2)c1 (stereo not drawn),inactive,
CC(C)CCNC(=O)C(c1ccncc1)N(Cc1cccs1)C(=O)Cn1nnc(-c2ccc(F)cc2)n1 (stereo not drawn),"inconclusive: 1.12 µM [inhibitor, full curve]",
O=C(Nc1cccc(F)c1)c1cc(S(=O)(=O)NCCC2=CCCCC2)ccc1F,"inconclusive: 11.2 µM [inhibitor, single point]",
COc1cc2c(cc1OC)-c1cc(=Nc3c(C)cc(C)cc3C)n(C)c(=O)n1CC2,"inconclusive: 35.5 µM [inhibitor, single point]",
CCc1nc(C)cn1S(=O)(=O)c1cc(OC)c(C)cc1C,"inconclusive: 2.51 µM [inhibitor, partial curve]",
COc1ccc(OCC(=O)Nc2ccc(NC(=O)c3cccs3)c(OC)c2)cc1,"inconclusive: 2.51 µM [activator, single point]",
O=C(CCl)Nc1ccc(-c2ccccc2)cc1,active: 17.8 µM,
CCNc1nc(NCC)nc(Oc2ccc(OCc3ccccc3)nn2)n1,"inconclusive: 3.16 µM [activator, single point]",
CCSc1nnc(-c2cccnc2)n1-c1ccc(Cl)c(C)c1,"inconclusive: 0.794 µM [inhibitor, single point]",
O=C(Nc1ccc(C(F)(F)F)cc1)c1cnc(N2CCN(c3ccccn3)CC2)c2ccccc12,inactive,
CCn1c(O)c(N=NC(=O)c2cccc(S(=O)(=O)N3CCCCC3)c2)c2ccccc21,"inconclusive: 7.94 µM [inhibitor, partial curve]",
O=C(CSc1ncccn1)Nc1ncc(C(F)(F)F)cc1Cl,inactive,
COc1ccc(-n2nnnc2-c2cnc3cc4c(cc3c2C)OCO4)cc1,"inconclusive: 10 µM [inhibitor, partial curve]",

# Taken from above:
# Entry for CCNc1nc(NCC)nc(Oc2ccc(OCc3ccccc3)nn2)n1 under Potency: inconclusive: 3.16 µM [activator, single point]
# Entry for Cc1cc(NC(=O)CCl)n(-c2nc3ccccc3s2)n1 under Potency: inconclusive: 6.31 µM [activator, partial curve, poor fit]
# Entry for C=CCNc1nc(-c2sc(NC(C)=O)nc2C)cs1 under Potency: active: 12.6 µM
# Entry for CCOc1ccc(NC(c2ccccn2)c2oc(CO)cc(=O)c2O)cc1 (stereo not drawn) under Potency: inactive
# Entry for COC(=O)c1ccc(NC(=S)Nc2ccccn2)cc1 under Potency: inactive
# Entry for CCCCCCCCCc1nc(N)n[nH]1 under Potency: inactive

# (cont.)

Compound,Potency,"activity change, negative = inhibition"
O=C(/C=C/c1ccco1)Nc1ccc(Oc2ccccc2)cc1,"inconclusive: 14.1 µM [inhibitor, single point]",
CN(C)/C=C/C(=O)c1ccc(Oc2ncccn2)cc1,"inconclusive: 2.24 µM [activator, partial curve]",
COc1ccc(CN2CCn3ncc(C(=O)Nc4ccc(Cl)cc4Cl)c3C2=O)cc1,"inconclusive: 12.6 µM [activator, partial curve]",
CCCCNC(=O)c1cccnc1SCC(=O)Nc1ccccc1OC,"inconclusive: 4.47 µM [inhibitor, single point]",
O=C(CSc1nc2ccc([N+](=O)[O-])cc2[nH]1)c1ccc(Cl)cc1,"inconclusive: 3.55 µM [activator, full curve, poor fit]",
CCCCNCc1cc2ccccc2o1,,inactive: -4.64% [at 9.22 µM]
O=C(NC(=S)Nc1ccc(CN2CCCCC2)cc1)c1cccc(OCc2ccccc2)c1,"inconclusive: 35.5 µM [inhibitor, single point]",
Cc1ccc(/C(=N\O)c2oc3c(C)c4oc(=O)cc(C)c4cc3c2C)cc1,"inconclusive: 35.5 µM [inhibitor, single point]",
Cc1ccc2[nH]c3c(N4CCOCC4)ncnc3c2c1,"inconclusive: 35.5 µM [inhibitor, single point]",
CCN(CC)S(=O)(=O)c1ccc2nc(NC(=O)c3cccs3)sc2c1,"inconclusive: 10 µM [inhibitor, partial curve]",
Cc1ccc(-c2cc(C(F)F)n3ncc(C(=O)Nc4c(C)nn(Cc5ccccc5Cl)c4C)c3n2)cc1,"inconclusive: 15.8 µM [inhibitor, single point]",
C=CS(=O)c1sc(Cl)c(N2CCOCC2)c1[N+](=O)[O-] (stereo not drawn),"inconclusive: 35.5 µM [inhibitor, single point]",
CCn1nc(C)c(NC(=O)CCCSc2nc(-c3ccco3)cc(C(F)(F)F)n2)c1C,"inconclusive: 11.2 µM [inhibitor, partial curve]",
O=C1CCCN1CCCNC(=S)Nc1ccc(Nc2ccccc2)cc1,inactive,
COC(=O)c1nnn(-c2ccsc2C(=O)OC)c1C(=O)OC,"inconclusive: 3.16 µM [inhibitor, partial curve, poor fit]",
Cc1ccc(/C=C/C(=O)N2CCN(c3ncccn3)CC2)o1,"inconclusive: 35.5 µM [inhibitor, single point]",
COc1ccc(CNC(=O)c2c(O)c3cccc4c3n(c2=O)CCC4)cc1,"inconclusive: 35.5 µM [inhibitor, single point]",
CCC1Sc2ccccc2N(CC(=O)NCCC2=CCCCC2)C1=O (stereo not drawn),"inconclusive: 15.8 µM [inhibitor, single point]",
CCOC(=O)N1CCN(S(=O)(=O)c2ccc(C(=O)Nc3nnc(C4CC4)o3)cc2)CC1,"inconclusive: 11.2 µM [inhibitor, partial curve]",
O=C1C2C(c3ccccc3)CC=CC2[C@H](c2cccc([N+](=O)[O-])c2)N1Cc1ccccc1 (stereo partly drawn),"inconclusive: 2 µM [inhibitor, partial curve]",
CCc1ccc(O)c(N=Cc2ccccc2O)c1,"inconclusive: 0.224 µM [activator, full curve, poor fit]",
COCCn1cnc2c(c1=O)c1nc3ccccc3nc1n2/N=C/c1ccco1,,inactive: -11.3% [at 9.22 µM]
